From patent publication US20230287070A1, “NOVEL TUMOR-SPECIFIC ANTIGENS FOR ACUTE MYELOID LEUKEMIA (AML) AND USES THEREOF” (UNIVERSITE DE MONTREAL, priority 2020, published 2023) come the findings set out here.

For this data set, the system named is AML specimens vs MPCs. Briefly: Fold change of RNA expression between AML specimens and MPCs. Set-up: species or system human.
AGDIIARLI (listed as Homo sapiens) returned an AML/MPC of 1.817.
Sequence ALASHLIEA (listed as Homo sapiens) showed an AML/MPC of 15.4.
The same measure for ALDDITIQL (listed as Homo sapiens): 17.32; for ALDPLLLRI (listed as Homo sapiens): 9.564.
The result for ALGNTVPAV (listed as Homo sapiens) reads 14.05; that for ALLPAVPSL (listed as Homo sapiens), 1261.102; that for ALPVALPSL (listed as Homo sapiens), 16.47.
The same measure for APAPPPVAV (listed as Homo sapiens): 344.2.
Turning to APDKKITL (listed as Homo sapiens), the AML/MPC is reported as 55.03.
The same measure for APGAAGQRL (listed as Homo sapiens): 24.62; for APRGTAAL (listed as Homo sapiens): 17.29.
For the sequence AQDIILQAV (listed as Homo sapiens), the AML/MPC is on record as 230.14.
The result for AQKVSVGQAA (listed as Homo sapiens) reads 2.691; that for AQMNLLQKY (listed as Homo sapiens), 31.39.
The result for ATQNTIIGK (listed as Homo sapiens) reads 2.542.
Turning to AVLLPKPPK (listed as Homo sapiens), the AML/MPC amounted to 0.5454.
The same measure for CLRIGPVTL (listed as Homo sapiens): 2.363; for DLLPKKLL (listed as Homo sapiens): 141.2948; for DLMLRESL (listed as Homo sapiens): 0.5437.
The result for DQVIRLAGL (listed as Homo sapiens) reads 246.7.
The result for DRELRNLEL (listed as Homo sapiens) reads 106.7.
The sequence DRGILRNLL (listed as Homo sapiens) gave an AML/MPC of 1.754.
The result for EGKIKRNI (listed as Homo sapiens) reads 0.7945; that for ERVYIRASL (listed as Homo sapiens), 7.705; that for ETTSQVRKY (listed as Homo sapiens), 9.474.
The result for FLASFVEKTVL (listed as Homo sapiens) reads 0.3177.
The result for FLLEFKPVS (listed as Homo sapiens) reads 0.178; that for FNVALNARY (listed as Homo sapiens), 113.6.
GARQQIHSW (listed as Homo sapiens) yielded an AML/MPC of 8.853.
The same measure for GGSLIHPQW (listed as Homo sapiens): 11.49; for GLRLIHVSL (listed as Homo sapiens): 2.739.
The same measure for GLRLLHVSL (listed as Homo sapiens): 3.328; for GLYYKLHNV (listed as Homo sapiens): 13.53.
The result for GPGSRESTL (listed as Homo sapiens) reads 19.38; that for GPQVRGSI (listed as Homo sapiens), 0.2444.
GQKPVILTY (listed as Homo sapiens) came in with an AML/MPC of 5.212.
The same measure for GSLDFQRGW (listed as Homo sapiens): 19.21.
The same measure for GTLQGIRAW (listed as Homo sapiens): 1098.148.
The result for HHLVETLKF (listed as Homo sapiens) reads 66.82.
HLLSETPQL (listed as Homo sapiens) had an AML/MPC of 13.51.
The result for HQLYRASAL (listed as Homo sapiens) reads 9.736; that for HSLISIVYL (listed as Homo sapiens), 80.1734; that for HTDDIENAKY (listed as Homo sapiens), 88.63.
The result for HVSDGSTALK (listed as Homo sapiens) reads 2.419; that for IAAPILHV (listed as Homo sapiens), 26.19; that for IAGALRSVL (listed as Homo sapiens), 221.362.
The result for IALYKQVL (listed as Homo sapiens) reads 0.8416; that for IASPIALL (listed as Homo sapiens), 20.11.
IAYSVRALR (listed as Homo sapiens) displayed an AML/MPC of 3.755.
Take IGNPILRVL (listed as Homo sapiens): the AML/MPC is given as 95.0262.
Take ILASHNLTV (listed as Homo sapiens): the AML/MPC is 0.8366.
The result for ILDLESRY (listed as Homo sapiens) reads 16.434; that for ILFQNSALK (listed as Homo sapiens), 16.93.
The same measure for ILKKNISI (listed as Homo sapiens): 22.54; for ILLEEQSLI (listed as Homo sapiens): 4.36; for ILLSNFSSL (listed as Homo sapiens): 1.033.
Consider ILRSPLKW (listed as Homo sapiens), for which the AML/MPC is reported as 56.7804.
In turn, IPHQRSSL (listed as Homo sapiens) yielded an AML/MPC of 61.73.
The result for IPLAVRTI (listed as Homo sapiens) reads 8.644; that for IPLNPFSSL (listed as Homo sapiens), 2.675.
The same measure for IQLTSVHLL (listed as Homo sapiens): 0.3646.
IRMKAQAL (listed as Homo sapiens) had an AML/MPC of 0.1413.
The result for ISLIVTGLK (listed as Homo sapiens) reads 9.245; that for ISNKVPKLF (listed as Homo sapiens), 19.42.
The same measure for ISSWLISSL (listed as Homo sapiens): 4.706; for ITSSAVTTALK (listed as Homo sapiens): 2.018.
The result for IVATGSLLK (listed as Homo sapiens) reads 0.5067; that for IYAPHIRLS (listed as Homo sapiens), 230.392.
IYQFIMDRF (listed as Homo sapiens) returned an AML/MPC of 86.12.
Consider KAFPFHIIF (listed as Homo sapiens), for which the AML/MPC worked out at 8.766.
The sequence KATEYVHSL (listed as Homo sapiens) showed an AML/MPC of 67.34.
As to KEIFLELRL (listed as Homo sapiens), the AML/MPC stood at 90.9946.
The result for KFSNVTMLF (listed as Homo sapiens) reads 8.927; that for KGHGGPRSW (listed as Homo sapiens), 0.3527.
The same measure for KIKNKTKNK (listed as Homo sapiens): 0.8468; for KIKVFSKVY (listed as Homo sapiens): 0.5638.
The same measure for KILDVNLRI (listed as Homo sapiens): 8.266; for KLLEKAFSI (listed as Homo sapiens): 20.38.
